The values below come from PubChem BioAssay AID192 (DTP/NCI, 2004).

The list shows only some results of the screen, not a fair sample: it covers a few groups of compounds. Not every dose and run of a compound is shown. T/C: endpoint of the treated group in % of that of the vehicle group. For survival time, the PubChem record calls one and a half times the control and up active, and a quarter to a half above the control has no call in these data; cut-offs in other NCI protocols can differ. Some T/C values are marked as having no survivor count here; that says nothing about deaths at the dose. Schedules are NCI's codes, read here as Q, the interval in days (D) or hours (H), X, the number of doses.

The assay deals with BDF1 mice, B16 melanoma ip, median survival T/C. The assay is described as follows: NCI In Vivo Anticancer Drug Screen. Data for tumor model B16 Melanoma (intraperitoneal) in B6D2F1 (BDF1) mice. The following applies: T/C endpoint: median survival time, higher T/C = longer survival. Here is the method: The antitumor activity of compounds was measured in mice bearing transplantable tumors. Survival or tumor size were measured and the results are expressed as the measurement made in the treated group (T) divided by the measurement made in the vehicle treated control group (C). The tumor model used in this assay is B16 Melanoma (intraperitoneal) in B6D2F1 (BDF1) mice

For `CN1CCC(OC(=O)C(O)(c2ccccc2)C2CCCC2)C1` (stereo not given), the T/C by setting is: (dose: 12.5 mg/kg/injection, schedule: Q01DX009 (ip), vehicle: saline) 107 % of control [survivor count not shown]; (dose: 25.0 mg/kg/injection, schedule: Q01DX009 (ip), vehicle: saline) 100 % of control [survivor count not shown]; (dose: 50.0 mg/kg/injection, schedule: Q01DX009 (ip), vehicle: saline) 100 % of control [survivor count not shown]; (dose: 100.0 mg/kg/injection, schedule: Q01DX009 (ip), vehicle: saline) 105 % of control [survivor count not shown]; (dose: 200.0 mg/kg/injection, schedule: Q01DX009 (ip), vehicle: saline) 91 % of control [survivor count not shown].
For `BrCCN(CCBr)Cc1ccccc1`, the T/C runs as follows: (dose: 0.25 mg/kg/injection, schedule: Q04DX003 (ip), vehicle: saline with Tween-80) 99 % of control [survivor count not shown]; (dose: 0.5 mg/kg/injection, schedule: Q04DX003 (ip), vehicle: saline with Tween-80) 104 % of control [survivor count not shown]; (dose: 0.9 mg/kg/injection, schedule: Q01DX009 (ip), vehicle: carboxymethylcellulose (CMC)) 103 % of control [survivor count not shown]; (dose: 1.0 mg/kg/injection, schedule: Q04DX003 (ip), vehicle: saline with Tween-80) 98 % of control [survivor count not shown]; (dose: 1.9 mg/kg/injection, schedule: Q01DX009 (ip), vehicle: carboxymethylcellulose (CMC)) 92 % of control [survivor count not shown]; (dose: 1.9 mg/kg/injection, schedule: Q04DX003 (ip), vehicle: saline with Tween-80) 138 % of control [survivor count not shown]. Moreover, the T/C (dose: 2.0 mg/kg/injection, schedule: Q04DX003 (ip), vehicle: saline with Tween-80) was 115 % of control [survivor count not shown]; the T/C (dose: 3.8 mg/kg/injection, schedule: Q01DX009 (ip), vehicle: carboxymethylcellulose (CMC)) was 97 % of control [survivor count not shown]; the T/C (dose: 7.5 mg/kg/injection, schedule: Q01DX009 (ip), vehicle: carboxymethylcellulose (CMC)) was 105 % of control [survivor count not shown]; the T/C (dose: 15.0 mg/kg/injection, schedule: Q01DX009 (ip), vehicle: carboxymethylcellulose (CMC)) was 100 % of control [survivor count not shown].
